This is one part of the list.
Target: T1, OsSMF1 (Oryza sativa, UniProt Q6ZLB0 1-436)
T1 sequence: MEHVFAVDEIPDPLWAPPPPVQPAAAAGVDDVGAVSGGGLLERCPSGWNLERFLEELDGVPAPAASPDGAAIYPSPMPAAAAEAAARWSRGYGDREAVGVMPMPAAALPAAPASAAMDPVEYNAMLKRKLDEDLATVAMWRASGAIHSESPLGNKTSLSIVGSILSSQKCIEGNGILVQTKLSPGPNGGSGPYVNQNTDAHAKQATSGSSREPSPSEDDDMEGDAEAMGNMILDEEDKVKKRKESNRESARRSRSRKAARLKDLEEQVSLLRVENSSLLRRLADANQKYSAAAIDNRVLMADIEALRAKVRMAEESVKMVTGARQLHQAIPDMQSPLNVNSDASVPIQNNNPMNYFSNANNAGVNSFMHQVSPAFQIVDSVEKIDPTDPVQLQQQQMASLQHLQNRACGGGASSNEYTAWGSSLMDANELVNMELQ
Assay: protein-binding microarray (RPBM); PBS, 2% BSA, 51.3 ng/ul salmon testes DNA, 50 uM zinc acetate, 200 nM TF, 25 C, 1 h; high values mean tight binding
Conditions: protein: recombinant; tags: N-terminal polyhistidine and DsRed monomer fusion (pET32a); chain copies: 2; label: CyDye5-dUTP incorporated in the synthesized complementary strand; 3' TTTTT single-stranded linker to array surface; dsDNA, one strand shown
In short: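 For the binding signal, per-feature fluorescence intensity was read in arbitrary units on an Axon 4000B scanner. Before scanning, a 2% BSA-blocked custom Agilent array made double-stranded with Cy5-dUTP was washed after 1 h at 25 °C with 200 nM protein and 50 µM zinc acetate. The proteins were Ni–NTA-purified transcription factors with N-terminal polyhistidine and DsRed fusions, expressed in E. coli BL21-CodonPlus.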

Sequence	binding signal
TGGGCAACGAATGCGAACCTACTTCTCCTAGTATACTGCTCGGAGTCACCTAGTGCAG	3720 fluorescence intensity (a.u.)
ACTTTGTCAAGTTCAATAATATACCATCGTGTTTTCTTTACGGAGTCACCTAGTGCAG	3260 fluorescence intensity (a.u.)
ATAAAGCACGAGGTGTACTTCTCGGCCAAATTATGGATCACGGAGTCACCTAGTGCAG	3140 fluorescence intensity (a.u.)
GATTAAATGGAAGAGAGAATGAATAATTAAGATTTAAAGACGGAGTCACCTAGTGCAG	27400 fluorescence intensity (a.u.)
TCTTATTCTGATATGTCCTTAGTGACCTTGTGAATGCGCTCGGAGTCACCTAGTGCAG	3200 fluorescence intensity (a.u.)
CCACGCGGCCGCGTCCAGGTCATCGTCGTCGCCTCGCCTCCGGAGTCACCTAGTGCAG	7200 fluorescence intensity (a.u.)
TTCGTTTGGCTCAAACACGACCGAGATGACGTGGCACGTGCGGAGTCACCTAGTGCAG	23800 fluorescence intensity (a.u.)
GATGGTGAGGTTGGCGTGTAGGTGCGGGCAGCTGTTGTTTCGGAGTCACCTAGTGCAG	4300 fluorescence intensity (a.u.)
ACGAACCACGTCAGCCGAAAACGGGATCAATACTAGCTTTCGGAGTCACCTAGTGCAG	5240 fluorescence intensity (a.u.)
ACTCGAGGGAAGGGGATTGGGAGTTTACATGAGGGAATTGCGGAGTCACCTAGTGCAG	4070 fluorescence intensity (a.u.)
TTGAGGCCGTAGCCTAAGAGTGTCACGCCGACGCCGATGACGGAGTCACCTAGTGCAG	3480 fluorescence intensity (a.u.)
GACATGTCACTGGTGTCACACATCATACGATGTCAGCGCCCGGAGTCACCTAGTGCAG	5910 fluorescence intensity (a.u.)
GTCTAAATAATAAGAGGCTGACATGTCGGTCCCACGTGATCGGAGTCACCTAGTGCAG	6750 fluorescence intensity (a.u.)
CTCTCTCTCTCTCGGCGTCGCTTCCCACCGACGCCGCCCACGGAGTCACCTAGTGCAG	3800 fluorescence intensity (a.u.)
CAGTAAAGCTTGGTCATTATTATTGTTGACACATATGAGTCGGAGTCACCTAGTGCAG	3720 fluorescence intensity (a.u.)
GTATTGACCGACCCCGATCCCACGCACGCACGCACGCACCCGGAGTCACCTAGTGCAG	3820 fluorescence intensity (a.u.)
CTCACTACAGCTAGCTAACCGAGAGCCACACGTCGGTGACCGGAGTCACCTAGTGCAG	4220 fluorescence intensity (a.u.)
ACCGCCGTTGCTAGTGTATTCCAGGCGAGTACCCACGTGTCGGAGTCACCTAGTGCAG	3700 fluorescence intensity (a.u.)
TGAAGAGATAATCCTAATGCTGCAGATAAACTCTTCCAAACGGAGTCACCTAGTGCAG	4160 fluorescence intensity (a.u.)
TCCGTTCCCGGCCGCGGCAGGATCACGGTGTTCTCACGCCCGGAGTCACCTAGTGCAG	26300 fluorescence intensity (a.u.)
GAGAGGAGGGGAAAGAGAGAAGGTGATGATGTGGCATTCTCGGAGTCACCTAGTGCAG	16900 fluorescence intensity (a.u.)

As a working copy, some entries already given:
Sequence	binding signal
CTCACTACAGCTAGCTAACCGAGAGCCACACGTCGGTGACCGGAGTCACCTAGTGCAG	4220 fluorescence intensity (a.u.)
ACCGCCGTTGCTAGTGTATTCCAGGCGAGTACCCACGTGTCGGAGTCACCTAGTGCAG	3700 fluorescence intensity (a.u.)

(next part)

Sequence	binding signal
GCTTCTCCTTCCTCCCCTCCGCGGCCGATCGCGATGGAACCGGAGTCACCTAGTGCAG	3400 fluorescence intensity (a.u.)
CCATCAATCCACCGCCCCGCCGCGTCTTCTCCTCGTCGGCCGGAGTCACCTAGTGCAG	3210 fluorescence intensity (a.u.)
GTATTGATCTGATGATCGAGTTGTGGTTATGCCCTTAAGACGGAGTCACCTAGTGCAG	3200 fluorescence intensity (a.u.)
TGAACCGGGCCTTTGTTTATTGCTCAATCAATTAAATGTTCGGAGTCACCTAGTGCAG	3250 fluorescence intensity (a.u.)
CCCATTGGCCCACACCGCCAGGTCACTCCACATCCCAACCCGGAGTCACCTAGTGCAG	6500 fluorescence intensity (a.u.)
AATTTTACAACCATTTATTTCTAATCGATTTCGTCATTTGCGGAGTCACCTAGTGCAG	3510 fluorescence intensity (a.u.)
CTCTAAGCAACTATGTGTCCGTGTGCACACGCGGCCACGCCGGAGTCACCTAGTGCAG	3720 fluorescence intensity (a.u.)
CTCTCTCTCTCTCTCACTTATCCACTTTTAACTAAATATTCGGAGTCACCTAGTGCAG	3760 fluorescence intensity (a.u.)
TTAAGGACGATTTTGTAATTCAGCTGACAAGACGAGGGATCGGAGTCACCTAGTGCAG	4300 fluorescence intensity (a.u.)
GCATGCAGGGGCTGTGACCAGTGGAAACCCGTCATCTGTGCGGAGTCACCTAGTGCAG	4020 fluorescence intensity (a.u.)
ACAGTACACTTGTGCTGATCTAATCACATTTCAACTGTCTCGGAGTCACCTAGTGCAG	3350 fluorescence intensity (a.u.)
TGATTGGCCCACACCTGTCAGTCACCTAGCTCCGGGCCGGCGGAGTCACCTAGTGCAG	3760 fluorescence intensity (a.u.)
GTGTGCGTGCGTGGCTAACTCCTCCTCACCCTCGCTCGATCGGAGTCACCTAGTGCAG	8040 fluorescence intensity (a.u.)
ACATTCTAGCCATTCATTCTTCACACCTCATTTAATCCTACGGAGTCACCTAGTGCAG	3280 fluorescence intensity (a.u.)
CCGCTTTTCCCCGCAAAGCCACGCCACGATGGCCTCCTCGCGGAGTCACCTAGTGCAG	6080 fluorescence intensity (a.u.)
GCGTCCTCCTCTCCTCGGCGTGGAGAGAGAAGGTAGGGAGCGGAGTCACCTAGTGCAG	3190 fluorescence intensity (a.u.)
AGGTGGAGGTGGAGCGGGTGGTTGTCCGGCGTCAGGTTGACGGAGTCACCTAGTGCAG	4280 fluorescence intensity (a.u.)
GCTCGCTAATCGCTATAAACCCTACTCCGAAATCCGATTACGGAGTCACCTAGTGCAG	14600 fluorescence intensity (a.u.)
CCGCGTTGACATCACAAGGCACGTGTCATCGTTGCCGAGCCGGAGTCACCTAGTGCAG	11600 fluorescence intensity (a.u.)
TTTGAGTTCACACACGATGCGAGAATCCACCGTTGGGCTGCGGAGTCACCTAGTGCAG	21000 fluorescence intensity (a.u.)
TTGCAACACATCACCTCTGACGACGTAGCCTACCTTGACACGGAGTCACCTAGTGCAG	5750 fluorescence intensity (a.u.)
